These are yes or no findings as the source states them, for the method shown. Binding seen in cells or lysates may run through a third protein. A yes stands for co-enrichment or nearness to the bait. Other partners may have been found.
Target: ATR (endogenous) (human (endogenous in HEK293T and H1975)) (UniProt Q13535)
Assay: affinity purification with mass spectrometry; immunoprecipitation with an ATR-specific antibody from HEK293T cells, immunoprecipitates analysed by mass spectrum

Protein sequences, listed by entry. Tags and fused reporters are not part of them.
UniProt Q13535: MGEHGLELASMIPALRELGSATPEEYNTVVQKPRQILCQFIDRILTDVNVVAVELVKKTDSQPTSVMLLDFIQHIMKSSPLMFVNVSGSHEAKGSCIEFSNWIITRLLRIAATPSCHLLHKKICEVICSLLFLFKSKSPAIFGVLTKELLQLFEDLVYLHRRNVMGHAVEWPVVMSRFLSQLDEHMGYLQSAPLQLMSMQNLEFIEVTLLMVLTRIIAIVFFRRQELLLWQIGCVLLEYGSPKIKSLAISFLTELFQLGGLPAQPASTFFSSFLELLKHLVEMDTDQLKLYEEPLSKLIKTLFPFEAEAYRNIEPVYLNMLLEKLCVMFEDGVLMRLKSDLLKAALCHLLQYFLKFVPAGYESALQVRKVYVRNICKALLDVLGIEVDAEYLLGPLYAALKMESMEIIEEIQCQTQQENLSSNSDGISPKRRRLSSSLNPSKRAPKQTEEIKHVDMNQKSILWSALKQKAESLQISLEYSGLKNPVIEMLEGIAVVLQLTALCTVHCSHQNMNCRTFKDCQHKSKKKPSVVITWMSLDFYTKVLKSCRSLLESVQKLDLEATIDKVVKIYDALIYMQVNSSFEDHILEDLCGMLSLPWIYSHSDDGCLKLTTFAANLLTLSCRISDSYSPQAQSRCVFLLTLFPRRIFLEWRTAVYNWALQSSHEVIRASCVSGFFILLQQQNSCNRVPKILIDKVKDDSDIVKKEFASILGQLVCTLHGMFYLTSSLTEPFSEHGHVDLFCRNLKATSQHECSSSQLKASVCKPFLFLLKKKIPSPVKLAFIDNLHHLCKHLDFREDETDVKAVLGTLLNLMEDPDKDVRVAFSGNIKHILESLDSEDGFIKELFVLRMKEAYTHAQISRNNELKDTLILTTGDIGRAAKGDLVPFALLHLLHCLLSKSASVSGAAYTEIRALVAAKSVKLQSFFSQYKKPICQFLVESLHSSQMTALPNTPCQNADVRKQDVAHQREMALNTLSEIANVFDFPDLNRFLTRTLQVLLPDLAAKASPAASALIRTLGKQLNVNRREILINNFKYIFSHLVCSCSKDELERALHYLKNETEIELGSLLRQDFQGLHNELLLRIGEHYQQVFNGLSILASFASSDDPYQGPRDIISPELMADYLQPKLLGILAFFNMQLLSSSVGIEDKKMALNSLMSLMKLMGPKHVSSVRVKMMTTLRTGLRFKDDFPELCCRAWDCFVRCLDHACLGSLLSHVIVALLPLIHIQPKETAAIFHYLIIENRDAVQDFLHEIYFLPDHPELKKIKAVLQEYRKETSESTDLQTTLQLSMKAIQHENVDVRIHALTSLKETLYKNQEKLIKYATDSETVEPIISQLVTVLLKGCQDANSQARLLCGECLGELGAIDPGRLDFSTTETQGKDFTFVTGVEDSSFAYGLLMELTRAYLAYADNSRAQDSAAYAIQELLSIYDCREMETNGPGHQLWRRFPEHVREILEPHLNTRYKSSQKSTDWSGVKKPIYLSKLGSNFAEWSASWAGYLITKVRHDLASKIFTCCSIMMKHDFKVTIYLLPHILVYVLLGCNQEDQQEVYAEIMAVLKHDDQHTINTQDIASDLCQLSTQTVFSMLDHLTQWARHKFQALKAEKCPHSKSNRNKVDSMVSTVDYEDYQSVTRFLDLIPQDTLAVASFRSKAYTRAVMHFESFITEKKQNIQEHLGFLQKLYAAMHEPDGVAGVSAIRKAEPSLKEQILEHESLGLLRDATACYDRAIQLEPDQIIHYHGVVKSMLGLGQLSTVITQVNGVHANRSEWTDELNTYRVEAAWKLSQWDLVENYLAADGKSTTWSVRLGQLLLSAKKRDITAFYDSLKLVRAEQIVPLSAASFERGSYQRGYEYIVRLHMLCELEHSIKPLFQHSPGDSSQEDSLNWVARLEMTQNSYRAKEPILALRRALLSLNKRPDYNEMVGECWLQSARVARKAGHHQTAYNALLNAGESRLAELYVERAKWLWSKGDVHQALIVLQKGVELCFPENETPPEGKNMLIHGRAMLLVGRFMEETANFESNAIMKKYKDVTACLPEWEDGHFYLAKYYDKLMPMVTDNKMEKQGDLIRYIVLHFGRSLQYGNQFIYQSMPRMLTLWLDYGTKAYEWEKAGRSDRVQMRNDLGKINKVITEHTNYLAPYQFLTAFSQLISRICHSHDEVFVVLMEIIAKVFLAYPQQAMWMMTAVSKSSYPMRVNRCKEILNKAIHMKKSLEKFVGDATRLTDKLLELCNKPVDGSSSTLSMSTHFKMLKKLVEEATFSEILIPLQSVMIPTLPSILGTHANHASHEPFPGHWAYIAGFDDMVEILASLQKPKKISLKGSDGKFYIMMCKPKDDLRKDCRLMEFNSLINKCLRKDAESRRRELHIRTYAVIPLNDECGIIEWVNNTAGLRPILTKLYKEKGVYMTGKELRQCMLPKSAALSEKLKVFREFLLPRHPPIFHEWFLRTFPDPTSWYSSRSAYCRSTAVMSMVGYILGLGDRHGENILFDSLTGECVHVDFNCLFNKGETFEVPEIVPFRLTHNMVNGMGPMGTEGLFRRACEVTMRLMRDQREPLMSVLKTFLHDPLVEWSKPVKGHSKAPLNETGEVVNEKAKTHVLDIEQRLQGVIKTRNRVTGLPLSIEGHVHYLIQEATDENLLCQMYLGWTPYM

B1: GST-tagged FOXP1 (wild type, full length) (natural protein, human, UniProt Q9H334 1-677, looked up)
chain: MMQESGTETKSNGSAIQNGSGGSNHLLECGGLREGRSNGETPAVDIGAADLAHAQQQQQQALQVARQLLLQQQQQQQVSGLKSPKRNDKQPALQVPVSVAMMTPQVITPQQMQQILQQQVLSPQQLQVLLQQQQALMLQQQQLQEFYKKQQEQLQLQLLQQQHAGKQPKEQQQVATQQLAFQQQLLQMQQLQQQHLLSLQRQGLLTIQPGQPALPLQPLAQGMIPTELQQLWKEVTSAHTAEETTGNNHSSLDLTTTCVSSSAPSKTSLIMNPHASTNGQLSVHTPKRESLSHEEHPHSHPLYGHGVCKWPGCEAVCEDFQSFLKHLNSEHALDDRSTAQCRVQMQVVQQLELQLAKDKERLQAMMTHLHVKSTEPKAAPQPLNLVSSVTLSKSASEASPQSLPHTPTTPTAPLTPVTQGPSVITTTSMHTVGPIRRRYSDKYNVPISSADIAQNQEFYKNAEVRPPFTYASLIRQAILESPEKQLTLNEIYNWFTRMFAYFRRNAATWKNAVRHNLSLHKCFVRVENVKGAVWTVDEVEFQKRRPQKISGNPSLIKNMQSSHAYCTPLNAALQASMAENSIPLYTTASMGNPTLGNLASAIREELNGAMEHTNSNESDSSPGRSPMQAVHPVHVKEEPLDPEEAEGPLSLVTTANHSPDFDHDRDYEDEPVNEDME
notes: FOXP1, human, full length; Vector pGEX-4T-1; also called GST-FOXP1; pGEX-4T-1-FOXP1; source: E. coli, purified
B1 was tested. Which binding did it give?
Its binding is “binds”.
